The values below come from article PMC12406253, “Exploration of the Neuromodulatory Properties of Fyn and GSK-3β Kinases Exploiting 7‑Azaindole-Based Inhibitors” (Journal of Medicinal Chemistry, 2025).

Series [1] has as its system immortalized human brain endothelial cell line (hCMEC/D3).
A further series is described as follows: in vitro. To be noted: human.

Structures are written as SMILES.

As usually defined, the Papp A→B is how fast a substance crosses the layer from the apical side. Higher therefore signals fast passage. `COc1cc2c(cc1OC)C(=O)C(CC1CCN(Cc3ccccc3)CC1)C2` (centres unmarked) [Donepezil, donepezil]: in series [1], the “CNS (+/-)” value is “+”. Besides, the apparent permeability from apical to basolateral (Papp A→B) in the series “in vitro” stood at 15.6 ± 3.1 ×10⁻⁶ cm/s.
